Test results reported in patent US20050233973A1, “Tri-peptides for antidepressant applications” (priority 1997, published 2005).

Test: Brain peptide levels (HPLC + RIA) after gabapentin treatment or withdrawal
Assay type: in vivo, Sprague-Dawley male rats

Substance: [pGlu]HPG [TRH-Gly, a TRH precursor]
- change in immunoreactivity (IR) (anterior cingulate, gabapentin withdrawal (W)): increased
- change in immunoreactivity (IR) (hippocampus, acute gabapentin (A)): decreased
- change in immunoreactivity (IR) (pyriform cortex, chronic gabapentin (C)): decreased

Non-standard residues stand in square brackets, D forms with d. No end group written: not given here. pGlu = O=C1CC[C@@H](C(=O)O)N1
